Patent US10358467B2, “Therapeutic targets for cancer progression” (The Regents of the University of California, priority 2015, dated 2019)
For at least one compound, name, drawing or mass did not settle the structure.

Assays:
Rac1 = Rac1 activity pulldown assay with GST-PBD in HeLa cells; format: cell-based; details: 10 μM, 6 h, DAPLE-depleted HeLa cells transfected with myc-DAPLE WT
Protocol: Rac1 activity in HeLa cells lines was monitored using GST-tagged PAK1-binding domain (PBD; pGEX-PBD) as described previously (Benard & Bokoch, 2002). Briefly, Escherichia coli strain BL21 bacteria transformed with pGEX-PBD were grown at 37° C. and GST-PBD expression was induced at OD600 with 1 mM IPTG for 3 h at 37° C. with shaking. Bacterial lysates were prepared as described above in protein purification section, cleared of debris by centrifugation and subsequently aliquots of lysates were stored at −80° C. until use. Aliquots of bacterial lysates were thawed, cleared of precipitated proteins by centrifugation at 14,000×g for 20 min, and the cleared supernatant was subsequently incubated with glutathione beads overnight at 4° C. with constant tumbling to prepare purified bead-bound GST-PBD freshly for each assay.
To analyze the role of DAPLE in regulation of Rac1 activity HeLa cells were used. For assays done on cells at steady-state, cells were maintained overnight in a media containing 2% or 0.2% FBS prior to lysis. […]

Akt = Akt phosphorylation (pAkt S473) immunoblot in HeLa cells; format: cell-based; details: 10 μM, 6 h, DAPLE-depleted HeLa cells transfected with myc-DAPLE WT
Protocol: For immunoblotting, protein samples were separated by SDS-PAGE and transferred to PVDF membranes (Millipore). Membranes were blocked with PBS supplemented with 5% nonfat milk (or with 5% BSA when probing for phosphorylated proteins) before incubation with primary antibodies. Infrared imaging with two-color detection and band densitometry quantifications were performed using a Li-Cor Odyssey imaging system exactly as done previously (Garcia-Marcos et al, 2011a; Garcia-Marcos et al, 2010; Garcia-Marcos et al, 2012; Garcia-Marcos et al, 2011b; Ghosh et al, 2010). All Odyssey images were processed using Image J software (NIH) and assembled into figure panels using Photoshop and Illustrator software (Adobe).

SMILES: O=C1OC2(c3ccc(O)cc3Oc3cc(O)ccc32)c2ccccc21 [Fluorescein]
- Rac1 activity (Rac1): no such effect
- Akt activity (Akt): no such effect
